Results are given in words; binding and its absence hold for the method and conditions named. Binding calls can cover weak binding; strength is not graded here. Where a sequence is shown, tags or fusion partners need not be part of it.
Molecular target: T1, OsWRKY45-BD (rice) (UniProt Q5W6D6)
T1 sequence: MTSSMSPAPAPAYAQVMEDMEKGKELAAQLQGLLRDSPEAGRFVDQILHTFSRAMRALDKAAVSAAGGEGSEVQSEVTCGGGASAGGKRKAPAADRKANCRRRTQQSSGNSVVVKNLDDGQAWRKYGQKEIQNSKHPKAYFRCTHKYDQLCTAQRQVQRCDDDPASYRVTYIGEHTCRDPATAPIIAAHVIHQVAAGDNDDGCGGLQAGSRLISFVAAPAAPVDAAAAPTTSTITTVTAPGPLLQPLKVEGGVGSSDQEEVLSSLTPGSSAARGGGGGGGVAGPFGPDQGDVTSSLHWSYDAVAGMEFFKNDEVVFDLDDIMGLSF
Assay: two-hybrid

For OsMED16 in pGADT7 (AD fusion), the binding was “binds”.
